In KR20160117808A:
Results are given in words; binding and its absence hold for the method and conditions named. Some binding calls cover weakened binding; strength is not graded here.

Sequences of proteins named here, by UniProt entry; tags and fusion partners are left off. Residues count along the entry.
UniProt P63304, residues 113-261: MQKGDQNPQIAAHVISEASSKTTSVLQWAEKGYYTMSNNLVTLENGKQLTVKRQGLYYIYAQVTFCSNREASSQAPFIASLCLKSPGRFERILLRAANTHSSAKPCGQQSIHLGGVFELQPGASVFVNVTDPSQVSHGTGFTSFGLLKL

Columns and labels:
[1] = target: 원숭이 CD154(CD40L) 항원 (Rhesus monkey) (UniProt P63304); test: ELISA by concentration, purified biotinylated antibody (m9C3.Aff-biotin, m9C3.IEX-biotin)
[2] = target: 원숭이 CD154(CD40L) 항원 (Rhesus monkey) (UniProt P63304); test: ELISA, coated CD40L antigen, hybridoma supernatant

B1: RM9C3 융합 세포주가 생산하는 항 원숭이 CD154 항체 (antibody, V domains shown)
VH: EVQLQQSGPELVKPGASVKISCKTSGYTFTEYTIHWVKQSHGESLEWIGGIYPNTGGTNYNQKFKGKATLTVDKSSSTVYMEFRGLTSEDSAVYYCARLLFDCDVDWFAYWGQGTLVTVSA
VL: NIVMTQTPKFLLVSAGDRITITCKASQSVNNNVAWYHQKPGQSPKLLIYYASNRYIGVPDRFTGSGYGTDFTFTISTVQAEDLAVYFCQQDHSSLTFGAGTKLELKR
For B1, the binding [1] was “binds” and the binding [2] was “binds”.
